The list does not hold the whole screen: it gathers tests that were run many times, whatever their T/C, doses with no T/C, and many T/C values between a quarter and a half above the control. Further doses and runs are listed elsewhere. T/C gives the treated animals as a percentage of the vehicle group. Where survival is the endpoint, this PubChem deposit counts one and a half times the control or more as active, and values a quarter to a half above the control carry no call in these data; other NCI protocols may use other cut-offs. Schedule codes are those of the source, read here as Q, the interval in days (D) or hours (H), X, the number of doses. Some doses were run more than once; the results are listed from low to high. Marks such as (2×) say how often a value occurs here. Some schedules carry Z or #; the key to these is not given. Some T/C values carry the count of animals alive at the toxicity check (mostly the fifth day); where none is given, no animal had died by that day.
Test system: L1210 leukemia ip in BDF1 mice, survival T/C
Experiment: NCI In Vivo Anticancer Drug Screen. Data for tumor model L1210 Leukemia (intraperitoneal) in B6D2F1 (BDF1) mice
Details: T/C endpoint: mean survival time, higher T/C = longer survival

`S=c1nc[nH]c2nc[nH]c12` was tested, and the T/C (dose: 27.0 mg/kg/injection, schedule: Q## X009 (ip), vehicle: alkali diluted with saline) was 142 % of control, the T/C (dose: 28.0 mg/kg/injection, schedule: Q01DX Z (ip), vehicle: carboxymethylcellulose (CMC)) was 136, 141, 149, 162, 166, 177, 181, 183, 195 % of control and the T/C (dose: 28.0 mg/kg/injection, schedule: Q01DX Z (oral), vehicle: carboxymethylcellulose (CMC)) was 132, 134, 135, 147, 164 % of control. The T/C (dose: 29.0 mg/kg/injection, schedule: Q01DX009 (ip), vehicle: alkali diluted with saline) was 118, 122, 124, 131 % of control, the T/C (dose: 30.0 mg/kg/injection, schedule: Q01DX001 (ip), vehicle: saline, evaluated on day 30) was 129, 133, 136 (2×), 138, 140, 149, 152 % of control and the T/C (dose: 30.0 mg/kg/injection, schedule: Q01DX001 (ip), vehicle: saline, evaluated on day 35) was 109 % of control. The T/C (dose: 30.0 mg/kg/injection, schedule: Q01DX005 (ip), vehicle: saline) was 131 % of control, the T/C (dose: 30.0 mg/kg/injection, schedule: Q01DX009 (ip), vehicle: alkali diluted with saline) was 128 % of control and the T/C (dose: 30.0 mg/kg/injection, schedule: Q01DX009 (ip), vehicle: saline) was 126 % of control. For the same compound, the T/C (dose: 30.0 mg/kg/injection, schedule: Q01DX014 (ip), vehicle: alkali diluted with saline) was 138 and 143 % of control, the T/C (dose: 30.0 mg/kg/injection, schedule: Q01DX015 (ip), vehicle: alkali diluted with saline) was 129 % of control and the T/C (dose: 30.0 mg/kg/injection, schedule: Q01DX015 (ip), vehicle: other) was 138 % of control. The T/C (dose: 30.0 mg/kg/injection, schedule: Q01DX015 (ip), vehicle: saline) was 132 % of control, the T/C (dose: 30.0 mg/kg/injection, schedule: Q03DX Z (ip), vehicle: other) was 148 % of control and the T/C (dose: 33.0 mg/kg/injection, schedule: Q02DX010 (ip), vehicle: carboxymethylcellulose (CMC)) was 147 (2×), 173, 176, 192, 193, 195, 201, 208, 210 % of control. The T/C (dose: 33.5 mg/kg/injection, schedule: Q02DX010 (ip), vehicle: other) was 140 % of control, the T/C (dose: 34.17 mg/kg/injection, schedule: Q02DX010 (ip), vehicle: carboxymethylcellulose (CMC)) was 150, 172, 181, 209, 210 % of control and the T/C (dose: 35.0 mg/kg/injection, schedule: Q01DX001 (ip), vehicle: other) was 137 % of control. The T/C (dose: 38.0 mg/kg/injection, schedule: Q02DX010 (ip), vehicle: alkali diluted with saline) was 132 % of control, the T/C (dose: 39.0 mg/kg/injection, schedule: Q01DX009 (ip), vehicle: other) was 137 % of control and the T/C (dose: 40.0 mg/kg/injection, schedule: Q01DX001 (ip), vehicle: carboxymethylcellulose (CMC)) was 134 and 136 % of control. The T/C (dose: 40.0 mg/kg/injection, schedule: Q01DX005 (ip), vehicle: alkali diluted with water) was 130 % of control, the T/C (dose: 40.0 mg/kg/injection, schedule: Q01DX005 (ip), vehicle: other) was 116, 117, 118, 121, 122 (2×), 127, 129, 131, 134, 135 (2×), 146 % of control and the T/C (dose: 40.0 mg/kg/injection, schedule: Q01DX009 (ip), vehicle: alkali diluted with saline, evaluated on day 5) was 127 and 142 % of control. For the same compound, the T/C (dose: 40.0 mg/kg/injection, schedule: Q01DX009 (ip), vehicle: alkali diluted with saline, evaluated on day 45) was 121, 125, 153, 161 % of control, the T/C (dose: 40.0 mg/kg/injection, schedule: Q01DX009 (oral), vehicle: saline with Tween-80) was 140 % of control and the T/C (dose: 40.0 mg/kg/injection, schedule: Q01DX010 (ip), vehicle: alkali diluted with saline) was 113, 120, 128, 131 % of control. The T/C (dose: 40.0 mg/kg/injection, schedule: Q01DX015 (ip), vehicle: alkali diluted with saline, evaluated on day 5) was 115, 123, 127 (2×), 128, 133, 134, 135, 136, 137 (2×), 145 % of control, the T/C (dose: 40.0 mg/kg/injection, schedule: Q01DX015 (ip), vehicle: alkali diluted with saline, evaluated on day 35) was 134 % of control and the T/C (dose: 40.0 mg/kg/injection, schedule: Q01DX015 (ip), vehicle: alkali diluted with saline, evaluated on day 45) was 127, 133, 135, 137 % of control (2×). For the same compound, the T/C (dose: 40.0 mg/kg/injection, schedule: Q01DX015 (ip), vehicle: alkali diluted with saline, evaluated on day 46) was 108 % of control, the T/C (dose: 40.0 mg/kg/injection, schedule: Q01DX Z (im), vehicle: other) was 143 % of control and the T/C (dose: 40.0 mg/kg/injection, schedule: Q01DX Z (ip), vehicle: carboxymethylcellulose (CMC)) was 145 % of control. The T/C (dose: 40.0 mg/kg/injection, schedule: Q01DX Z (sc), vehicle: other) was 145 % of control, the T/C (dose: 40.0 mg/kg/injection, schedule: Q## X009 (ip), vehicle: alkali diluted with saline) was 142 % of control and the T/C (dose: 40.0 mg/kg/injection, schedule: Q## X015 (ip), vehicle: alkali diluted with saline) was 145 % of control. The T/C (dose: 40.0 mg/kg/injection, schedule: Q## X032 (ip), vehicle: alkali diluted with saline) was 146 % of control, the T/C (dose: 44.0 mg/kg/injection, schedule: Q01DX015 (ip), vehicle: alkali diluted with saline) was 134 % of control and the T/C (dose: 45.0 mg/kg/injection, schedule: Q01DX009 (ip), vehicle: alkali diluted with saline) was 134 % of control. For the same compound, the T/C (dose: 45.0 mg/kg/injection, schedule: Q01DX009 (ip), vehicle: carboxymethylcellulose (CMC)) was 139 % of control, the T/C (dose: 45.0 mg/kg/injection, schedule: Q01DX015 (ip), vehicle: other) was 142 and 144 % of control and the T/C (dose: 49.5 mg/kg/injection, schedule: Q02DX010 (ip), vehicle: carboxymethylcellulose (CMC)) was 146, 172, 173, 176, 188 % of control. The T/C (dose: 50.0 mg/kg/injection, schedule: Q01DX001 (ip), vehicle: steroid suspending solution) was 137 % of control, the T/C (dose: 50.0 mg/kg/injection, schedule: Q01DX015 (ip), vehicle: alkali diluted with saline, evaluated on day 5) was 132, 147, 148, 168 % of control and the T/C (dose: 50.0 mg/kg/injection, schedule: Q01DX015 (ip), vehicle: alkali diluted with saline, evaluated on day 30) was 132 and 168 % of control. For the same compound, the T/C (dose: 50.0 mg/kg/injection, schedule: Q01DX015 (ip), vehicle: alkali diluted with saline, evaluated on day 45) was 148 % of control, the T/C (dose: 50.0 mg/kg/injection, schedule: Q01DX015 (ip), vehicle: alkali diluted with saline, evaluated on day 46) was 138 % of control and the T/C (dose: 50.0 mg/kg/injection, schedule: Q01DX Z (ip), vehicle: other) was 135 % of control. The T/C (dose: 50.0 mg/kg/injection, schedule: Q02DX010 (ip), vehicle: carboxymethylcellulose (CMC)) was 168, 171, 196 % of control (2×), the T/C (dose: 50.0 mg/kg/injection, schedule: Q02DX010 (ip), vehicle: other) was 128 [4 of 5 alive], 166, 169, 182 % of control and the T/C (dose: 50.0 mg/kg/injection, schedule: Q## X015 (ip), vehicle: alkali diluted with saline) was 149 % of control. The T/C (dose: 51.0 mg/kg/injection, schedule: Q02DX010 (ip), vehicle: carboxymethylcellulose (CMC)) was 144, 146, 152, 166, 172, 197 % of control, the T/C (dose: 56.0 mg/kg/injection, schedule: Q01DX Z (ip), vehicle: carboxymethylcellulose (CMC)) was 122, 125, 151, 160 % of control and the T/C (dose: 56.0 mg/kg/injection, schedule: Q01DX Z (oral), vehicle: carboxymethylcellulose (CMC)) was 133, 151, 167, 168, 176 % of control. The T/C (dose: 56.3 mg/kg/injection, schedule: Q01DX015 (ip), vehicle: other) was 134 % of control, the T/C (dose: 57.0 mg/kg/injection, schedule: Q01DX009 (ip), vehicle: alkali diluted with saline) was 137, 139, 144, 148 % of control and the T/C (dose: 57.0 mg/kg/injection, schedule: Q02DX010 (ip), vehicle: alkali diluted with saline) was 144 % of control. The T/C (dose: 59.0 mg/kg/injection, schedule: Q01DX001 (ip), vehicle: carboxymethylcellulose (CMC)) was 137 % of control, the T/C (dose: 60.0 mg/kg/injection, schedule: Q01DX001 (ip), vehicle: carboxymethylcellulose (CMC)) was 137 % of control and the T/C (dose: 60.0 mg/kg/injection, schedule: Q01DX001 (ip), vehicle: saline, evaluated on day 30) was 131, 142, 144, 145, 149 (2×), 157, 160 % of control. For the same compound, the T/C (dose: 60.0 mg/kg/injection, schedule: Q01DX001 (ip), vehicle: saline, evaluated on day 35) was 117 % of control, the T/C (dose: 60.0 mg/kg/injection, schedule: Q01DX005 (ip), vehicle: saline) was 126 % of control and the T/C (dose: 60.0 mg/kg/injection, schedule: Q01DX009 (ip), vehicle: alkali diluted with saline, evaluated on day 5) was 134 and 160 % of control. For the same compound, the T/C (dose: 60.0 mg/kg/injection, schedule: Q01DX009 (ip), vehicle: alkali diluted with saline, evaluated on day 45) was 140, 144, 164, 204 % of control, the T/C (dose: 60.0 mg/kg/injection, schedule: Q01DX009 (ip), vehicle: alkali diluted with saline, evaluated on day 60) was 133 and 150 % of control and the T/C (dose: 60.0 mg/kg/injection, schedule: Q01DX009 (ip), vehicle: carboxymethylcellulose (CMC)) was 131 % of control. For the same compound, the T/C (dose: 60.0 mg/kg/injection, schedule: Q01DX014 (ip), vehicle: alkali diluted with saline) was 137 and 144 % of control, the T/C (dose: 60.0 mg/kg/injection, schedule: Q01DX015 (ip), vehicle: alkali diluted with saline, evaluated on day 5) was 125, 138, 139, 140, 149, 151 (2×), 155, 159, 161, 164, 169 % of control and the T/C (dose: 60.0 mg/kg/injection, schedule: Q01DX015 (ip), vehicle: alkali diluted with saline, evaluated on day 35) was 161 % of control. For the same compound, the T/C (dose: 60.0 mg/kg/injection, schedule: Q01DX015 (ip), vehicle: alkali diluted with saline, evaluated on day 45) was 138, 140, 151, 164, 169 % of control, the T/C (dose: 60.0 mg/kg/injection, schedule: Q01DX015 (ip), vehicle: alkali diluted with saline, evaluated on day 46) was 130 % of control and the T/C (dose: 60.0 mg/kg/injection, schedule: Q01HX006 (ip), vehicle: saline) was 138 % of control. For the same compound, the T/C (dose: 60.0 mg/kg/injection, schedule: Q02DX008 (ip), vehicle: alkali diluted with saline) was 125 and 132 % of control.

From PubChem BioAssay AID248 (DTP/NCI, 2004)
